Counter-ions that a name gives are not always drawn. ± gives the standard deviation of the averaged measurements. The list shows a part of the results. This data set is noisy: repeats of one test often differ as much as different tests do.
System: A549
Assay: surface PD-L1 immunofluorescence intensity relative to IFN-gamma-only control (ratio); higher = more PD-L1 expression
Details: 10 µM; exposure time 24 h; IFN-gamma 100 ng/mL

| SMILES | surface PD-L1 immunofluorescence intensity |
| --- | --- |
| CNCCc1ccccn1 [Betahistine mesylate] | 1.02 |
| CC1=C(C)C(=O)C(C(CCCCCC(=O)O)c2ccccc2)=C(C)C1=O (configuration not stated) [Seratrodast] | 0.912 |
| CCCCCCCCCCCCCCCC(=O)OC[C@H](O)[C@H]1OC(=O)C(O)=C1O [Ascorbyl palmitate] | 1.06 |
| N#C/C(=C\c1ccc(O)c(O)c1)C(=O)NCCCCc1ccccc1 | 0.962 |
| Nc1nc2c(ncn2COC(CO)CO)c(=O)[nH]1 [Ganciclovir] | 0.977 |
| C[C@H](CCC(=O)O)[C@H]1CC[C@H]2[C@@H]3[C@@H](O)C[C@@H]4C[C@H](O)CC[C@]4(C)[C@H]3CC[C@]12C [Urosiol] | 1.06 |
| C#C[C@]1(O)CC[C@H]2[C@@H]3CCC4=CCCC[C@@H]4[C@H]3CC[C@@]21C [Lynestrenol] | 1.07 |
| O=C(Nc1ccncc1)c1cc([N+](=O)[O-])ccc1Cl | 0.988 |
| CCCCCCNC(=O)Nc1ccc(S(=O)(=O)Nc2ccc(CCNC[C@H](O)COc3ccc(O)cc3)cc2)cc1 | 0.947 |
| O=C(CCCN1CCN(c2ccccn2)CC1)c1ccc(F)cc1 [Azaperone] | 1.02 |
| N[C@@H](CS(=O)O)C(=O)O [L-Cysteinesulfinic acid] | 1.17 |
| CCCCC/C=C/C=C1/C(=O)C=C[C@@H]1C/C=C\CCCC(=O)O [15-Deoxy-D12,14-prostaglandin J2] | 1.08 |
| NC[C@@H]1O[C@@H](O[C@H]2[C@H](O)[C@@H](O[C@H]3O[C@H](CO)[C@@H](O)[C@H](N)[C@H]3O)[C@H](N)C[C@@H]2N)[C@@H](O)[C@H](O)[C@H]1O [Kanamycin A sulfate] | 0.999 |
| Nc1nc(-c2ccc(Cl)c(Cl)c2)c(-c2ccncc2)s1 [CGH 2466 dihydrochloride] | 0.928 |
| COCCCN1CCC(NC(=O)c2cc(Cl)c(N)c3c2OCC3)CC1 [Prucalopride] | 1.03 |
| COC(=O)[C@H](NC(=O)c1cc(-c2ccccc2)nc2ccccc12)c1ccccc1 | 0.975 |
| COC(=O)C1=C(C#N)NC(C)=C(C(=O)OC(C)C)C1c1cccc([N+](=O)[O-])c1 (configuration not stated) [Nilvadipine] | 0.951 |
| N#Cc1cc2nc(O)c(O)nc2cc1[N+](=O)[O-] [CNQX disodium salt] | 1.05 |
| C[C@@H](CN1CCC(Cc2ccccc2)CC1)[C@@H](O)c1ccc(O)cc1 [Ro 25-6981 maleate] | 0.987 |
| CNc1nc(Nc2cn(C(C)(C)C#N)nc2C)ncc1C(F)(F)F | 0.974 |
| CC1CC(OC(=O)c2ccccc2O)CC(C)(C)C1 (configuration not stated) [Homosalate] | 1.04 |
| CN(C)C(=O)[C@H](O)[C@H](Cc1ccccc1)NC(=O)c1cc2cc(Cl)ccc2[nH]1 | 0.992 |
| CC1(C(=O)O)NCCc2cc(O)c(O)cc21 (configuration not stated) [Salsolinol-1-carboxylic acid] | 1.02 |
| Cl/C(=C\n1cncn1)c1ccc(Cl)cc1Cl [Loreclezole hydrochloride] | 1.03 |

| SMILES | surface PD-L1 immunofluorescence intensity |
| --- | --- |
| CCC(=O)NC1Cc2ccccc2C(c2ccccc2)C1 (configuration not stated) | 1.16 |
| COc1ccc(C2CC(=O)c3c(O)cc(OC4OC(COC5OC(C)C(O)C(O)C5O)C(O)C(O)C4O)cc3O2)cc1OC (configuration not stated) [Methyl-Hesperidin] | 1.1 |
| N[C@@H](Cc1cc(I)c(Oc2ccc(O)c(I)c2)c(I)c1)C(=O)O [Liothyronine] | 0.965 |
| CN1CCC(=C2c3ccccc3Sc3ccccc32)CC1 [Pimethixene maleate] | 1.03 |
| Cc1cc(C)c(S(=O)(=O)Nc2ccccc2C(F)(F)F)c(C)c1 | 0.981 |
| CC(C)[C@H](CO)Nc1nc(Nc2ccc(C(=O)O)c(Cl)c2)c2ncn(C(C)C)c2n1 [Purvalanol B] | 0.955 |
| CCCN(C/C=C/I)C1CCc2cccc(O)c2C1 (configuration not stated) [8-Hydroxy-PIPAT oxalate] | 1.1 |
| C[C@@H]1C[C@H]2[C@@H]3CCC4=CC(=O)C=C[C@]4(C)[C@@]3(F)[C@@H](O)C[C@]2(C)[C@@]1(O)C(=O)COP(=O)(O)O [Dexamethasone Sodium Phosphate] | 0.798 |
| OCCN(CCO)c1nc(N2CCCCC2)c2nc(N(CCO)CCO)nc(N3CCCCC3)c2n1 [Dipyridamole] | 1.04 ± 0.14 |
| CC(CCCCC(=O)Nc1ccc(C(F)(F)F)cc1)NCCc1cnc[nH]1 (configuration not stated) [HTMT dimaleate] | 1.04 |
| Cc1ccc(NC(=O)c2cccc(C(C)(C)C#N)c2)cc1Nc1ccc2ncn(C)c(=O)c2c1 | 0.944 ± 0.056 |
| O=C(O)c1ccccc1C(=O)Nc1ccc(S(=O)(=O)Nc2nccs2)cc1 [Phthalylsulfathiazole] | 1.1 |
| CN(c1nccc(=O)[nH]1)C1CCN(c2nc3ccccc3n2Cc2ccc(F)cc2)CC1 [Mizolastine] | 0.966 |
| CCS(=O)(=O)N1CCC[C@@H]2CN3CCc4cc(OC)ccc4[C@@H]3C[C@@H]21 | 1.06 |
| CC(C)(C)[N+]([O-])=Cc1ccc(S(=O)(=O)O)cc1S(=O)(=O)O | 0.988 |
| CN1CCN(C(c2ccccc2)c2ccccc2)CC1 [Cyclizine hydrochloride] | 1.01 |
| COC(=O)[C@@H]1CC2=CC(=O)CC[C@]2(C)[C@@]23O[C@@H]2C[C@@]2(C)[C@@H](CC[C@@]24CCC(=O)O4)[C@H]13 [Eplerenone] | 0.935 ± 0.05 |
| CC(C)OC(=O)C1=CN(C(=O)c2ccc(F)c(F)c2)CC(C)(C)c2c1[nH]c1ccccc21 | 0.989 |
| C[C@H](CCC(=O)NCCS(=O)(=O)O)[C@H]1CC[C@H]2[C@@H]3CC[C@@H]4C[C@H](O)CC[C@]4(C)[C@H]3C[C@H](O)[C@]12C [Taurodeoxycholic acid] | 1.07 |
| CCN(CC)CC(=O)Nc1c(C)cccc1C [Lidocaine hydrochloride] | 0.85 |
| c1ccc2c(CC3=NCCN3)cccc2c1 [Naphazoline hydrochloride] | 0.917 |
| CC(=O)OCC(=O)[C@@]12OC(C)(C)O[C@@H]1C[C@H]1[C@@H]3C[C@H](F)C4=CC(=O)C=C[C@]4(C)[C@@]3(F)[C@@H](O)C[C@@]12C [Fluocinonide (Vanos)] | 0.792 |
| CC(=O)OCC(=O)[C@@]12OC(C)(C)O[C@@H]1C[C@H]1[C@@H]3C[C@H](F)C4=CC(=O)C=C[C@]4(C)[C@@]3(F)[C@@H](O)C[C@@]12C [Fluocinonide] | 0.91 |

A few values from the entries so far.
Value for CCCN(C/C=C/I)C1CCc2cccc(O)c2C1 (configuration not stated) [8-Hydroxy-PIPAT oxalate] under surface PD-L1 immunofluorescence intensity: 1.1
Value for COC(=O)C1=C(C#N)NC(C)=C(C(=O)OC(C)C)C1c1cccc([N+](=O)[O-])c1 (configuration not stated) [Nilvadipine] under surface PD-L1 immunofluorescence intensity: 0.951
